Measured values as given in publication PMC9100841.
Results are given in words; binding and its absence hold for the method and conditions named. Binding seen in cells or lysates may run through a third protein.

Protein sequences, listed by entry. Tags and fused reporters are not part of them.
UniProt Q9HD67: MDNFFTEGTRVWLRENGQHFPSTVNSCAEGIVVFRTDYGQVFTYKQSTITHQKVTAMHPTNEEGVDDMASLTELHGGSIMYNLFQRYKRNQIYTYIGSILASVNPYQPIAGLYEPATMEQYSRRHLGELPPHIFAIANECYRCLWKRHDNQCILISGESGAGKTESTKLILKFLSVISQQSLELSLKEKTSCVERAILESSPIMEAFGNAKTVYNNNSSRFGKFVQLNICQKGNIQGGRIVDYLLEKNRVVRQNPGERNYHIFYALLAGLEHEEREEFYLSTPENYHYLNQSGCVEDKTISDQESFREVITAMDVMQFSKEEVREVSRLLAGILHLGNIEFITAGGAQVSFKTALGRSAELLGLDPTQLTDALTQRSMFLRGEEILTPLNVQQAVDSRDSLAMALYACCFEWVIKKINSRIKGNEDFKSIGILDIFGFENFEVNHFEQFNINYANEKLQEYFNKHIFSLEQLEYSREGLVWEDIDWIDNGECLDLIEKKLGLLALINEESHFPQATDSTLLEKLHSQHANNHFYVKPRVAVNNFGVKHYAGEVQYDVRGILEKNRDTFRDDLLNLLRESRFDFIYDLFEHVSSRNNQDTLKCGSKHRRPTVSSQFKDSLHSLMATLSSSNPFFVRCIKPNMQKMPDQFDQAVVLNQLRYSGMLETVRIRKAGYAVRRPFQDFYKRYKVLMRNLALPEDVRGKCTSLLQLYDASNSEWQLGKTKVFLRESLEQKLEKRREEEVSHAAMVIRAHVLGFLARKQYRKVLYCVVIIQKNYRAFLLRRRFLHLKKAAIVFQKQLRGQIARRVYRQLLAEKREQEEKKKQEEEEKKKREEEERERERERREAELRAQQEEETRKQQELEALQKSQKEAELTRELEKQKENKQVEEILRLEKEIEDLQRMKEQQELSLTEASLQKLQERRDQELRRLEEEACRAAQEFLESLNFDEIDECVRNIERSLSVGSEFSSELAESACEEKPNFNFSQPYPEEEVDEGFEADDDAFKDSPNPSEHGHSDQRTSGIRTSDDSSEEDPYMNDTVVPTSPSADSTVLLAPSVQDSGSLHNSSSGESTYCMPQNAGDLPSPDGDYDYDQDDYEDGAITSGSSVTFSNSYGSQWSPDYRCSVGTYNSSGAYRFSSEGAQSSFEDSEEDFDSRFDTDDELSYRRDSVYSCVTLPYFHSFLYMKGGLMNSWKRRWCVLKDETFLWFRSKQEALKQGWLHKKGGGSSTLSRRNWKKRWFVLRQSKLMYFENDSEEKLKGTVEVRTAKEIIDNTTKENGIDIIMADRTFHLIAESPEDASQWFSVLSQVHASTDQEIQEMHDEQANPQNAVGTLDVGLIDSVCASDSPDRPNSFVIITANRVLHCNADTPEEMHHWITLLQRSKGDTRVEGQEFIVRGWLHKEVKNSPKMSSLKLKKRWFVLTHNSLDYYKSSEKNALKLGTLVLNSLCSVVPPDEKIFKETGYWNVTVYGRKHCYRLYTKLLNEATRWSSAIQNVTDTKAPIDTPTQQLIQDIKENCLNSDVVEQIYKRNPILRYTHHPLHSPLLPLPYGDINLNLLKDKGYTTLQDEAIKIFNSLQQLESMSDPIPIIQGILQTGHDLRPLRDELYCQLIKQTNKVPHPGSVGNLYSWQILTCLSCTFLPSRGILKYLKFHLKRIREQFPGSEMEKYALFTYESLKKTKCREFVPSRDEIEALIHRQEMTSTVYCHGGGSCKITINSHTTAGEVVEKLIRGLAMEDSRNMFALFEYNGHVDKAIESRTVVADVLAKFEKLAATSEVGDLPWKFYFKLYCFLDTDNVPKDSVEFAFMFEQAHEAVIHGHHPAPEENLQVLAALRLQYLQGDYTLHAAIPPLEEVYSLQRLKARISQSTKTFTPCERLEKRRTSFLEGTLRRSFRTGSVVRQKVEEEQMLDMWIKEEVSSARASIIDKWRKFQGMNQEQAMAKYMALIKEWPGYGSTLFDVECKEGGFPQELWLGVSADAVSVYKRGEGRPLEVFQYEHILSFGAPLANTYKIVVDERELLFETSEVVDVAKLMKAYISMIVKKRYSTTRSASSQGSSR

Target: myosin-X (Myo10) (human (endogenous in primary trabecular meshwork cells)) (UniProt Q9HD67)
Assay: co-IP; Myosin-10 polyclonal antibody on protein A/G magnetic beads, incubated with TM cell RIPA lysates with 10 mM MgCl2 overnight at 4°C, washed with PBST; blots probed with integrin β1, α5, αvβ3, αvβ5 or CDH11 antibodies

- binding: no binding
B1: Cadherin-11 (CDH11) (protein, UniProt P55287 54-796)
chain: GWVWNQFFVIEEYTGPDPVLVGRLHSDIDSGDGNIKYILSGEGAGTIFVIDDKSGNIHATKTLDREERAQYTLMAQAVDRDTNRPLEPPSEFIVKVQDINDNPPEFLHETYHANVPERSNVGTSVIQVTASDADDPTYGNSAKLVYSILEGQPYFSVEAQTGIIRTALPNMDREAKEEYHVVIQAKDMGGHMGGLSGTTKVTITLTDVNDNPPKFPQSVYQMSVSEAAVPGEEVGRVKAKDPDIGENGLVTYNIVDGDGMESFEITTDYETQEGVIKLKKPVDFETKRAYSLKVEAANVHIDPKFISNGPFKDTVTVKISVEDADEPPMFLAPSYIHEVQENAAAGTVVGRVHAKDPDAANSPIRYSIDRHTDLDRFFTINPEDGFIKTTKPLDREETAWLNITVFAAEIHNRHQEAKVPVAIRVLDVNDNAPKFAAPYEGFICESDQTKPLSNQPIVTISADDKDDTANGPRFIFSLPPEIIHNPNFTVRDNRDNTAGVYARRGGFSRQKQDLYLLPIVISDGGIPPMSSTNTLTIKVCGCDVNGALLSCNAEAYILNAGLSTGALIAILACIVILLVIVVLFVTLRRQKKEPLIVFEEEDVRENIITYDDEGGGEEDTEAFDIATLQNPDGINGFIPRKDIKPEYQYMPRPGLRPAPNSVDVDDFINTRIQEADNDPTAPPYDSIQIYGYEGRGSVAGSLSSLESATTDSDLDYDYLQNWGPRFKKLADLYGSKDTFDDDS
